Assay results taken from PubChem BioAssay AID1671190 (National Center for Advancing Translational Sciences (NCATS), 2021).
The whole screen tested about 580,000 compounds, of which about 6,100 (1.1%) were called active. The inconclusive results got no clear call from the source; some entries with a clear call stand among them for comparison. Calls follow the shape of the dose curve; as a rule, active = well fitted inhibition curve with a large enough effect; inconclusive = small, poorly fitted or top-dose-only effect, or another doubt; inactive = no such curve, though single readings can be large or run the other way. Potencies beside an inconclusive call are fits to weak or partial responses and may not hold up.
Potency is read from the fitted curve at half-maximal effect.

Protein sequences, listed by entry. Tags and fused reporters are not part of them. Lines headed by an entry give the natural chain unless they say otherwise; changes in a name come on top.
UniProt P18054: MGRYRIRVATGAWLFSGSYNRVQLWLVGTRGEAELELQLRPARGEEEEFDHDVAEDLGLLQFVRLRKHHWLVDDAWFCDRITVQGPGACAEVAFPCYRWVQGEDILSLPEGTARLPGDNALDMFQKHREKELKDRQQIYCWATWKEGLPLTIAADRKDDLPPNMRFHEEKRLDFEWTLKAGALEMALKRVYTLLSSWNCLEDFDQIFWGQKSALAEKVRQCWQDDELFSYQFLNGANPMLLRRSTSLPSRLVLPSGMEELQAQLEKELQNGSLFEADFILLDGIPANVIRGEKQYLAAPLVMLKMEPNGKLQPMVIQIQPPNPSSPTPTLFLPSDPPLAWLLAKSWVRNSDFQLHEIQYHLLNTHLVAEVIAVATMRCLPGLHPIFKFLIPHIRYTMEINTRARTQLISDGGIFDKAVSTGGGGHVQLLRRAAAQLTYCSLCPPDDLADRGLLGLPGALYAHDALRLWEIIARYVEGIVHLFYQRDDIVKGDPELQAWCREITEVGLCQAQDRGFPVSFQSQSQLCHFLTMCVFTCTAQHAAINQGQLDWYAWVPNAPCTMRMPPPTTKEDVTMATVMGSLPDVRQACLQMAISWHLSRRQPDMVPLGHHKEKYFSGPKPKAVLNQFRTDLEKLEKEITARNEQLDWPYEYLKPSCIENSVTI

What follows are compounds tested against Polyunsaturated fatty acid lipoxygenase ALOX12 (Homo sapiens) (UniProt P18054) (assay: Primary qHTS assay for inhibitors of human arachidonate 12S-lipoxygenase (ALOX12): Round 2). Conditions: purified 12hLO, xylenol orange hydroperoxide absorbance; series mostly up to 108 µM.
In short: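 Purified human 12hLO at 150 nM in 25 mM Hepes, 0.01% Triton X-100, pH 7.0, preincubated 15 min at room temperature with compound. Reaction started with 40 uM arachidonic acid, 30 min at room temperature. Hydroperoxide measured by Fe-xylenol orange, 573/405 nm absorbance ratio.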
For `CCn1c(C)c(CCC(=O)NCCC2=NCc3ccccc32)c(=O)n2nc(-c3ccccc3OC)cc12`, the Potency was “inactive”. With `Cc1cc2oc(=O)cc(CSc3nncn3C)c2cc1C(C)C` the Potency was “inactive”. For `COc1ccc2nc(C(=O)Nc3ccccc3OC)ccc2c1`, the Potency was inconclusive: 4.47 µM [inhibitor, full curve, poor fit]. `Fc1ccccc1/C=N/NC(=S)NCc1ccccc1` was tested, and the Potency was inconclusive: 56.2 µM [inhibitor, partial curve, poor fit]. In the case of `CCCCN(C)C1=Nc2cccc3cccc1c23`, the Potency is reported as inconclusive: 14.1 µM [inhibitor, full curve]. With `CN(C)c1nc(N(C)C)nc(-n2cnc(SCc3ccccc3)n2)n1` the Potency was inconclusive: 126 µM [inhibitor, single point]. For `CC(=O)Nc1ccc(C(=O)OCc2ccc(Cl)c(Cl)c2)cc1`, the Potency was inconclusive: 79.4 µM [inhibitor, partial curve, poor fit]. For `S=C(NCCc1ccccc1)Nc1cccc(Cl)c1`, the Potency was inconclusive: 31.6 µM [inhibitor, partial curve, poor fit]. `CCCCC(=O)NNC(=S)NC(=O)c1cccc([N+](=O)[O-])c1` was tested, and the Potency was inconclusive: 3.16 µM [inhibitor, full curve]. `CCOc1cc(N2CCOCC2)c(OCC)cc1NC(=O)COC(=O)c1cc2ccccc2cc1O` was tested, and the Potency was inconclusive: 100 µM [inhibitor, partial curve, poor fit]. For `CC(=O)Nc1c(Br)cc2c(c1Br)C(=O)c1ccccc1-2`, the Potency was inconclusive: 89.1 µM [inhibitor, single point]. `C=CCOc1c(Br)cc(CNn2c(C)n[nH]c2=S)cc1OC` was tested, and the Potency was inconclusive: 31.6 µM [inhibitor, partial curve]. With `COc1ccc(C(=O)N2CCC[C@H]2c2nc(-c3ccc(C)cc3)no2)cc1F` the Potency was inconclusive: 15.8 µM [inhibitor, partial curve]. With `COc1cccc(/C=C(/C#N)C(=O)c2c(Cl)cccc2Cl)c1` the Potency was active: 7.08 µM. For `Cc1cc(C(=O)CCC(=O)NC(C)c2ccc(S(N)(=O)=O)cc2)c(C)s1` (stereo unspecified), the Potency was inconclusive: 100 µM [inhibitor, single point]. With `COc1ccccc1NC(=O)Nc1nn(C)c2cccc(OC)c12` the Potency was inconclusive: 112 µM [inhibitor, single point]. In the case of `COc1cc2c(c(OC)c1)C(c1ccc(F)c(Br)c1)C1=C(CCCC1=O)N2` (stereo unspecified), the Potency is reported as inconclusive: 89.1 µM [inhibitor, partial curve, poor fit]. For `O=C(c1ccccc1F)N1CCN(Cc2c[nH]c3ccccc23)CC1`, the Potency was inconclusive: 0.794 µM [inhibitor, full curve]. With `COc1ccc(OC)c(-c2nc3cc4c(cc3cc2CN2CCCOCC2)OCO4)c1` the Potency was inconclusive: 1.41 µM [inhibitor, full curve, poor fit]. In the case of `O=C(O)c1ccccc1C(=O)N1CC[C@H]2COC(=O)N2c2cc(F)ccc2C1`, the Potency is reported as inconclusive: 7.94 µM [inhibitor, full curve, poor fit]. In the case of `Cc1c(Cc2ccccc2)c(=O)oc2cc(OCC(=O)NC(Cc3ccc(Cl)cc3)C(=O)O)ccc12` (stereo unspecified), the Potency is reported as inconclusive: 79.4 µM [inhibitor, partial curve, poor fit]. With `CC(C)CNC(=O)COC(=O)c1c2c(nc3ccccc13)/C(=C\c1cccs1)CC2` the Potency was inconclusive: 39.8 µM [inhibitor, partial curve, poor fit]. With `O=C(COC(=O)c1cccs1)c1ccc(OCc2ccccc2)cc1` the Potency was “inactive”. With `O=C(Nc1sc(-c2ccccc2)cc1C(=O)O)c1ccccc1` the Potency was inconclusive: 44.7 µM [inhibitor, partial curve, poor fit]. For `Clc1ccc(N/N=C/c2ccncc2)cc1Cl`, the Potency was inconclusive: 3.16 µM [inhibitor, full curve, poor fit]. With `Cc1cccc(Nc2ccccc2C(=O)NCc2cccs2)c1C` the Potency was inconclusive: 50.1 µM [inhibitor, partial curve, poor fit]. With `CCCn1c(C)cc(C(=O)CSc2nnc(COc3ccc(Cl)cc3)n2C)c1C` the Potency was “inactive”. With `COc1ccc(-c2cc(NC=O)c3ncc(-c4cccc(C(=O)N(C)C)c4)n3c2)cn1` the Potency was inconclusive: 112 µM [inhibitor, single point]. For `CC(C)c1ccc(C(=O)Nc2cc(C(F)(F)F)ccc2Cl)cc1`, the Potency was inconclusive: 35.5 µM [inhibitor, partial curve, poor fit]. For `Cc1ccccc1C(=O)Nc1cccc(CCC(=O)N(C)C)c1`, the Potency was inconclusive: 112 µM [inhibitor, single point]. In the case of `O=C(Nc1cccc(-c2ccc(N3CCCC3)nn2)c1)Nc1cc(F)ccc1F`, the Potency is reported as “inactive”. For `Cc1ccc(/C=N/n2c(C3CCCCC3)n[nH]c2=S)cc1`, the Potency was inconclusive: 50.1 µM [inhibitor, partial curve, poor fit]. For `COc1cc(CNn2cn[nH]c2=S)cc(Cl)c1OCc1ccccc1`, the Potency was inconclusive: 35.5 µM [inhibitor, partial curve]. In the case of `C/C(=N\Nc1ccc(F)cc1F)c1ccc(N2CCOCC2)cc1`, the Potency is reported as inconclusive: 4.47 µM [inhibitor, partial curve, poor fit]. `Cc1ccc(C(=O)Nc2scc(-c3ccccc3)c2C(=O)O)cc1` was tested, and the Potency was “inactive”. `CC(C)(C)c1ccc(C(=O)Nc2cc(F)ccc2F)cc1` was tested, and the Potency was “inactive”. `CN(C(=O)C1CCCN(S(=O)(=O)c2cccc([N+](=O)[O-])c2)C1)C1CCS(=O)(=O)C1` (stereo unspecified) was tested, and the Potency was inconclusive: 35.5 µM [inhibitor, partial curve, poor fit]. In the case of `Cc1ccc(C2C(C(=O)c3cc4ccccc4o3)=C(O)C(=O)N2CCN2CCOCC2)o1` (stereo unspecified), the Potency is reported as inconclusive: 6.31 µM [inhibitor, full curve, poor fit]. `O=S(=O)(c1ccccc1)C(/C=N\O)/C=C/c1ccccc1` (stereo unspecified) was tested, and the Potency was inconclusive: 44.7 µM [inhibitor, partial curve, poor fit]. With `O=C(CCc1ncc(-c2ccccc2F)o1)Nc1ccc(Cl)cc1F` the Potency was “inactive”. For `N#CC1=C(N)OC2=C(C(=O)CCC2)C1c1cccc2ccccc12` (stereo unspecified), the Potency was “inactive”.
